Source: doi:10.1101/2024.02.06.579158
No constants are given. Whether binding was seen depends on the method and setting. Binding seen in cells or lysates may run through a third protein. Some binding calls cover weakened binding; strength is not graded here. For part of these data: Sequences can lack the tags named with a protein. Each block holds one molecule with its values, some of them ahead of it.

Chains of the proteins cited; added tags and fusions are not shown.
UniProt Q9R1K9: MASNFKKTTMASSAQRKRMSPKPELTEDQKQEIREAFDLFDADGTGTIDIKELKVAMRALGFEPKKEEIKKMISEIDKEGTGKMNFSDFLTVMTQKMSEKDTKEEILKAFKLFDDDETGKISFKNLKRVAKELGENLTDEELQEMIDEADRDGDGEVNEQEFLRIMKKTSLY

What was measured:
Assay in all cases: co-IP
[1] = molecular target: T1, FLAG-tagged mouse APLF, full length, stably expressed in E14 ESCs (mouse) (UniProt Q9D842)
T1 sequence: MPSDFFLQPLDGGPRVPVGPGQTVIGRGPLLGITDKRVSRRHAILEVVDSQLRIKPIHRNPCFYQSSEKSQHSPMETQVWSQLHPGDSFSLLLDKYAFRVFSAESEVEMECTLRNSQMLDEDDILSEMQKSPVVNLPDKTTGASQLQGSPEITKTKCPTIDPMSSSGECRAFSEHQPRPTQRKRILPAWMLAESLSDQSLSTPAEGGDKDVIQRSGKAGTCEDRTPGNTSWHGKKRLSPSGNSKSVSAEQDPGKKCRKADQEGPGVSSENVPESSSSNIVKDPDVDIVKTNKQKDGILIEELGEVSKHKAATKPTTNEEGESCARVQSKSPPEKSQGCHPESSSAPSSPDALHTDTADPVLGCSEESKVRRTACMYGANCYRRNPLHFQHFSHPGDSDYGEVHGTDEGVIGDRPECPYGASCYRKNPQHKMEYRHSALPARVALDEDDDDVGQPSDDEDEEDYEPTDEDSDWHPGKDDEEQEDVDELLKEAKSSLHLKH

[2] = molecular target: T2, endogenous mouse APLF (mouse (endogenous in E14 ESCs)) (UniProt Q9D842)
T2 sequence: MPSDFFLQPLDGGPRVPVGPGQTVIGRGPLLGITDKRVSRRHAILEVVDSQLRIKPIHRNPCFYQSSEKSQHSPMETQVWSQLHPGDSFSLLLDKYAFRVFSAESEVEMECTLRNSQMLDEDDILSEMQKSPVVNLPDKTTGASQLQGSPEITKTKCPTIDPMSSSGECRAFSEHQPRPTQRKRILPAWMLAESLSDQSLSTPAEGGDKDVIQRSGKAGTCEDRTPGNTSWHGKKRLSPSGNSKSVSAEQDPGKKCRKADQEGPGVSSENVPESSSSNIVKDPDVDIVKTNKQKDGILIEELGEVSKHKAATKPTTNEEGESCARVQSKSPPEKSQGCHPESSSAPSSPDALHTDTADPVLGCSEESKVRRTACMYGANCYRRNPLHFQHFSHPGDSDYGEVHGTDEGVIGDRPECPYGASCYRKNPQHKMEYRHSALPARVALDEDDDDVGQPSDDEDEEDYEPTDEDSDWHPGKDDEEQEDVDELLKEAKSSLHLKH

[3] = molecular target: T3, Polo-like Kinase 4 (PLK4) (mouse (endogenous in E14 ESCs)) (UniProt Q64702)
T3 sequence: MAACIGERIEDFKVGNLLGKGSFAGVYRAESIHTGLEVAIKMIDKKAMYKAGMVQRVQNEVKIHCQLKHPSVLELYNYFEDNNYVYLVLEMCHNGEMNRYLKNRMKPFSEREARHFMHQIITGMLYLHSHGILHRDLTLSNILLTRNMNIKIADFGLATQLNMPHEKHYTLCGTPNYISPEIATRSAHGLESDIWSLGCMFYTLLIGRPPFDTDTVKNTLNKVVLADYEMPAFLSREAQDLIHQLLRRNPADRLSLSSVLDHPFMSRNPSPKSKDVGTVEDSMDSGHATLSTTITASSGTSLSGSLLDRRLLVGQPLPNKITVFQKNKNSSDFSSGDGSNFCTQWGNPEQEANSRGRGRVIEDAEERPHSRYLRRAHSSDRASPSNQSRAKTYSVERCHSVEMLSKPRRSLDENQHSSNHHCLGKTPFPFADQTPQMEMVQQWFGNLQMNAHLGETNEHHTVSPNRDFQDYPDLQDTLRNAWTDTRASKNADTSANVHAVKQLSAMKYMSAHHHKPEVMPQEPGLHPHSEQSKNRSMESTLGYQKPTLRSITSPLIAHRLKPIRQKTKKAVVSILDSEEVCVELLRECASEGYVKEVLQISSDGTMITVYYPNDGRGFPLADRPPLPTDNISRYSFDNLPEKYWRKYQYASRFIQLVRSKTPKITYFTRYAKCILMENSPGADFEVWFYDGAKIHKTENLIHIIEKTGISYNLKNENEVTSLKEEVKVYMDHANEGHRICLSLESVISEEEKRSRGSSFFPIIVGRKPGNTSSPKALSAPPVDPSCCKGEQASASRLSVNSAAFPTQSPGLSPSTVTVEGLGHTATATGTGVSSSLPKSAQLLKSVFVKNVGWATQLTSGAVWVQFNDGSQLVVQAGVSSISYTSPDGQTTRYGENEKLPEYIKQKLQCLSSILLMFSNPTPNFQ

binding [1]: binds
Molecule: Centrin 2 (CETN2) (from UniProt Q9R1K9 1-172)

binding [2]: binds
B1: Polo-like Kinase 4 (PLK4) (enzyme, UniProt Q64702 1-925)
chain: MAACIGERIEDFKVGNLLGKGSFAGVYRAESIHTGLEVAIKMIDKKAMYKAGMVQRVQNEVKIHCQLKHPSVLELYNYFEDNNYVYLVLEMCHNGEMNRYLKNRMKPFSEREARHFMHQIITGMLYLHSHGILHRDLTLSNILLTRNMNIKIADFGLATQLNMPHEKHYTLCGTPNYISPEIATRSAHGLESDIWSLGCMFYTLLIGRPPFDTDTVKNTLNKVVLADYEMPAFLSREAQDLIHQLLRRNPADRLSLSSVLDHPFMSRNPSPKSKDVGTVEDSMDSGHATLSTTITASSGTSLSGSLLDRRLLVGQPLPNKITVFQKNKNSSDFSSGDGSNFCTQWGNPEQEANSRGRGRVIEDAEERPHSRYLRRAHSSDRASPSNQSRAKTYSVERCHSVEMLSKPRRSLDENQHSSNHHCLGKTPFPFADQTPQMEMVQQWFGNLQMNAHLGETNEHHTVSPNRDFQDYPDLQDTLRNAWTDTRASKNADTSANVHAVKQLSAMKYMSAHHHKPEVMPQEPGLHPHSEQSKNRSMESTLGYQKPTLRSITSPLIAHRLKPIRQKTKKAVVSILDSEEVCVELLRECASEGYVKEVLQISSDGTMITVYYPNDGRGFPLADRPPLPTDNISRYSFDNLPEKYWRKYQYASRFIQLVRSKTPKITYFTRYAKCILMENSPGADFEVWFYDGAKIHKTENLIHIIEKTGISYNLKNENEVTSLKEEVKVYMDHANEGHRICLSLESVISEEEKRSRGSSFFPIIVGRKPGNTSSPKALSAPPVDPSCCKGEQASASRLSVNSAAFPTQSPGLSPSTVTVEGLGHTATATGTGVSSSLPKSAQLLKSVFVKNVGWATQLTSGAVWVQFNDGSQLVVQAGVSSISYTSPDGQTTRYGENEKLPEYIKQKLQCLSSILLMFSNPTPNFQ

binding [3]: binds
B2: endogenous mouse APLF (protein, UniProt Q9D842 1-499)
chain: MPSDFFLQPLDGGPRVPVGPGQTVIGRGPLLGITDKRVSRRHAILEVVDSQLRIKPIHRNPCFYQSSEKSQHSPMETQVWSQLHPGDSFSLLLDKYAFRVFSAESEVEMECTLRNSQMLDEDDILSEMQKSPVVNLPDKTTGASQLQGSPEITKTKCPTIDPMSSSGECRAFSEHQPRPTQRKRILPAWMLAESLSDQSLSTPAEGGDKDVIQRSGKAGTCEDRTPGNTSWHGKKRLSPSGNSKSVSAEQDPGKKCRKADQEGPGVSSENVPESSSSNIVKDPDVDIVKTNKQKDGILIEELGEVSKHKAATKPTTNEEGESCARVQSKSPPEKSQGCHPESSSAPSSPDALHTDTADPVLGCSEESKVRRTACMYGANCYRRNPLHFQHFSHPGDSDYGEVHGTDEGVIGDRPECPYGASCYRKNPQHKMEYRHSALPARVALDEDDDDVGQPSDDEDEEDYEPTDEDSDWHPGKDDEEQEDVDELLKEAKSSLHLKH
